In PMC6421407, “Activation of GCN2 by the ribosomal P-stalk” (Proceedings of the National Academy of Sciences of the …, 2019):
No constants are given. Whether binding was seen depends on the method and setting. Some binding calls cover weakened binding; strength is not graded here.

Target: human P-stalk protein P2 (human) (UniProt P05387)
Test: co-expression and co-purification; P-stalk proteins coexpressed in insect cells, purified under nondenaturing conditions by glutathione affinity, anion exchange and gel filtration

binding: binds
Substance: human P-stalk protein P1 (from UniProt P05386 1-114)
